# From PubChem BioAssay AID504834 (National Center for Advancing Translational Sciences (NCATS), 2011)
# Screen size: about 320,000 compounds; about 22,000 (6.9%) were called active. The inconclusive results got no clear call from the source; some entries with a clear call stand among them for comparison. The call rests on the fitted dose curve; in most records, active means well fitted inhibition curve with a large enough effect; inconclusive means small, poorly fitted or top-dose-only effect, or another doubt; inactive means no such curve, though single readings can be large or run the other way. Potencies beside an inconclusive call are fits to weak or partial responses and may not hold up.
# Assay: Primary qHTS for delayed death inhibitors of the malarial parasite plastid, 96 hour incubation
# Settings: P. falciparum luciferase reporter growth; series mostly up to 28.7 µM
# How it was run: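 Cell-based qHTS: luciferase-tagged P. falciparum in erythrocytes (2% hematocrit, 0.05% parasitemia final) incubated with compounds for 96 hours, 37 C, 5% CO2; luciferase detection reagent then added and luminescence measured.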
# Potency means the concentration at half of the fitted maximal effect.
row,SMILES,Potency
1,O=C(Nc1ccc(Cl)c(S(=O)(=O)N2CCOCC2)c1)[C@@H]1CCCN1C(=O)c1cccs1,"inconclusive: 18.5 µM [inhibitor, single point]"
2,COC(=O)c1sc(NC(=O)CCCn2nc([N+](=O)[O-])cc2C)c(C(=O)OC)c1C,"inconclusive: 18.5 µM [inhibitor, single point]"
3,COc1ccc(-c2cc(=O)[nH]c(=S)[nH]2)cc1,"inconclusive: 18.5 µM [inhibitor, single point]"
4,Fc1cccc(CCN2CCN=C2Nc2ccccc2)c1,inactive
5,Cc1ccnc(OC(C(=O)O)C(OCc2ccccc2)(c2ccccc2)c2ccc(C(F)(F)F)cc2)n1 (stereo not given),"inconclusive: 18.5 µM [inhibitor, single point]"
6,CCC(CC)C(=O)NN(C(=O)c1ccncc1)C1CC(=O)N(c2ccccc2)C1=O (stereo not given),inactive
7,C=CCn1c(C)nnc1SCC(=O)c1[nH]c(C)c(C(C)=O)c1C,"inconclusive: 0.465 µM [inhibitor, full curve, poor fit]"
8,CNC(=O)c1ccccc1Nc1ccc(SC(F)F)cc1,"inconclusive: 18.5 µM [inhibitor, single point]"
9,Cc1ccc(COC(=O)c2cc([N+](=O)[O-])ccc2N2CCOCC2)cc1,"inconclusive: 13.1 µM [inhibitor, single point]"
10,O=C(Nc1ccccc1C(=O)O)c1cccc(NC(=O)c2ccccc2Cl)c1,active: 10.4 µM
11,CC(NC(=O)CCC(=O)N1CCN(S(=O)(=O)c2ccc(Cl)cc2)CC1)c1ccccc1 (stereo not given),"inconclusive: 11.7 µM [inhibitor, single point]"
12,O=C(CCS(=O)(=O)c1cccc2nonc12)N1CC(=O)N(CCc2ccccc2)C(=O)C1,"inconclusive: 11.7 µM [inhibitor, single point]"
13,CCOc1ccc(N(CC(=O)N2CCN(c3ccccc3)CC2)S(=O)(=O)c2c(C)noc2C)cc1,"inconclusive: 6.57 µM [inhibitor, partial curve, poor fit]"
14,Cc1ccc(NP(=O)(Nc2ccc(C)cc2)Oc2ccccc2)cc1,inactive
15,CC1=C(c2ccc(C)cc2)[N+](=O)C(C)(C)N1[O-],"inconclusive: 20.8 µM [inhibitor, single point]"
16,COc1ccc(Cl)cc1NC(=O)C(C)OC(=O)c1ccc(NS(=O)(=O)c2ccc3[nH]c(=O)[nH]c3c2)cc1 (stereo not given),"inconclusive: 16.5 µM [inhibitor, single point]"
17,COC(=O)c1cscc1S(=O)(=O)Cc1ccccc1,inactive
18,CC1CC(C)CN(C(=O)c2nn(C)c3c2CS(=O)(=O)c2ccccc2-3)C1 (stereo not given),"inconclusive: 16.5 µM [inhibitor, partial curve, poor fit]"
19,O=C(CSc1nnc(-c2cccnc2)n1-c1ccccc1)N1CCN(c2ccc(F)cc2)CC1,"inconclusive: 13.1 µM [inhibitor, partial curve, poor fit]"
20,CCOC(=O)CCN(Cc1cccs1)S(=O)(=O)c1ccc(F)cc1,"inconclusive: 20.8 µM [inhibitor, partial curve, poor fit]"
21,CC1CN(C2=NC(=O)/C(=C3/C(=O)N(Cc4ccc(F)cc4)c4ccccc43)S2)CC(C)O1 (stereo not given),active: 5.86 µM
22,CCOc1ccc(NC(=O)CSc2nnc(C3CC3)n2N)cc1,inactive
23,Cc1ccc(NC(=O)C2CCCN(S(=O)(=O)c3cccnc3)C2)c(C)c1 (stereo not given),inactive
24,CC(C)NS(=O)(=O)c1ccc(OCC(=O)N2CCN(c3ccccc3)CC2)cc1,"inconclusive: 0.0657 µM [inhibitor, partial curve, poor fit]"

# Laid out differently: results already given
row	SMILES	Potency
15	CC1=C(c2ccc(C)cc2)[N+](=O)C(C)(C)N1[O-]	inconclusive: 20.8 µM [inhibitor, single point]
16	COc1ccc(Cl)cc1NC(=O)C(C)OC(=O)c1ccc(NS(=O)(=O)c2ccc3[nH]c(=O)[nH]c3c2)cc1 (stereo not given)	inconclusive: 16.5 µM [inhibitor, single point]

# The listing continues:

row,SMILES,Potency
1,Nc1ncc2c(n1)-c1cc(Cl)ccc1SC2,inactive
2,CCCCSc1nnc(-c2ccc(C)cc2)c2ccccc12,"inconclusive: 18.5 µM [inhibitor, single point]"
3,O=C(OCC#CCSc1nnc(-c2cccc3ccccc23)s1)c1cccs1,inactive
4,CC(C(=O)N1CCN(c2ccc([N+](=O)[O-])cc2)CC1)N1C(=O)C2CC=CCC2C1=O (stereo not given),"inconclusive: 1.65 µM [inhibitor, partial curve]"
5,O=C(NCc1ccccc1Cl)c1ccc(S(=O)(=O)NCc2ccco2)cc1,inactive
6,COC(=O)c1ccccc1NC(=O)CSc1nnnn1C,inactive
7,COC(=O)C(O)(CC(=O)Nc1ccc(Cl)cc1Cl)C(F)(F)F (stereo not given),"inconclusive: 18.5 µM [inhibitor, single point]"
8,Nc1ccc([N+](=O)[O-])cc1,"inconclusive: 3.7 µM [inhibitor, single point]"
9,CCOc1ccc(N2C(=O)CC(N(Cc3ccco3)C(=O)CCC(=O)O)C2=O)cc1 (stereo not given),"inconclusive: 14.7 µM [inhibitor, partial curve]"
10,Cc1ncccc1C(=O)N1CCCC(CNC(=O)C2(c3ccc(Cl)cc3)CC2)C1 (stereo not given),"inconclusive: 13.1 µM [inhibitor, single point]"
11,CCn1cc(C(=O)NC2CCCCC2C)c(=O)c2ccc(C)nc21 (stereo not given),active: 11.7 µM
12,S=C(Nc1ccc(Oc2ccccc2)cc1)NC1CCCCCC1,inactive
13,O=C(Cc1cccc(F)c1F)NC1CCCN(Cc2ccc(Cl)cc2)C1 (stereo not given),"inconclusive: 11.7 µM [inhibitor, single point]"
14,COc1ccccc1OCCSc1nc2ccccc2c(=O)[nH]1,inactive
15,O=C(C[n+]1ccc(/C=N/O)cc1)NC1CCCCC1,inactive
16,COC(=O)c1c(-c2ccccc2)c[nH]c1C,inactive
17,Cn1c(O)c(C2=NN(C(=O)CCl)C(c3ccccc3)C2)c(=O)n(C)c1=O (stereo not given),inactive
18,CC(=O)Oc1ccc2c(=O)c(-c3nc4ccccc4s3)coc2c1,inactive
19,COc1ccccc1OCC(=O)Nc1cc(S(=O)(=O)N2CCCCC2)ccc1N1CCCCC1,active: 2.08 µM
20,CC(CCc1ccccc1)NCc1ccncc1 (stereo not given),inactive
21,O=C(Cn1cc(SCc2ccc(Cl)cc2)c2ccccc21)N1CCOCC1,"inconclusive: 8.28 µM [inhibitor, partial curve, poor fit]"
22,CC(C)c1ccccc1NC(=O)CCc1nc2ccccc2s1,inactive
23,CCc1ccc(NC(=O)Cn2cnc([N+](=O)[O-])c2)cc1,inactive
24,CCOc1ccccc1NC(=O)CCN1CCN(S(=O)(=O)c2ccc(OC)cc2)CC1,"inconclusive: 3.7 µM [inhibitor, single point]"

row,SMILES,Potency
1,O=C(Nc1ccc2ccccc2n1)c1ccccc1Br,inactive
2,O=C(Nc1ccc(Cl)cc1)ON=C1CCCC1,"inconclusive: 5.22 µM [inhibitor, partial curve]"
3,CCCCN(CC)C(=O)CN(C)S(=O)(=O)c1cccc2nsnc12,"inconclusive: 13.1 µM [inhibitor, partial curve]"
4,Cc1nn(Cc2ccccc2Cl)c(C)c1NC(=O)c1ccn(C)n1,inactive
5,O=C(CSc1nc2ccccc2c(=O)n1-c1ccc(OC(F)F)cc1)NCc1cccs1,"inconclusive: 16.5 µM [inhibitor, single point]"
6,CCOC(=O)C[N+]1(C)CCN(C(C)=O)CC1,"inconclusive: 11.7 µM [inhibitor, partial curve, poor fit]"
7,O=C(NCc1ccncc1)c1ccc(Cn2cc(C(F)(F)F)ccc2=O)cc1,"inconclusive: 0.0033 µM [inhibitor, full curve, poor fit]"
8,COc1ccccc1-c1cc(C(F)(F)F)nc(S(=O)(=O)CCCC(=O)NCc2ccc(F)cc2)n1,active: 2.94 µM
9,CCOC(=O)c1ccccc1NC(=O)CSc1cccc[n+]1[O-],"inconclusive: 18.5 µM [inhibitor, single point]"
10,Cc1cccc(N2CCN(Cc3nc(-c4cccc(Oc5ccccc5)c4)oc3C)CC2)n1,inactive
11,O=C(NCc1cn(-c2ccccc2)nc1-c1ccc(F)cc1)c1cccc([N+](=O)[O-])c1,"inconclusive: 11.7 µM [inhibitor, single point]"
12,S=C(Nc1ccc(Br)cc1Cl)Nn1cnnc1,"inconclusive: 0.147 µM [inhibitor, full curve, poor fit]"
13,Cc1ccccc1OCC(=O)NC(=S)Nc1ccc(N2CCCC2)cc1,"inconclusive: 18.5 µM [inhibitor, single point]"
14,COc1ccc(-c2cc3nc(C)c(CCC(=O)NCc4ccc(F)cc4)c(C)n3n2)c(OC)c1,"inconclusive: 14.7 µM [inhibitor, partial curve, poor fit]"
15,Oc1[nH]c2ccccc2c1N=Nc1ccccc1F,"inconclusive: 8.28 µM [inhibitor, single point]"
16,CCOC(=O)c1ccc(N2CCN(c3ccccc3F)CC2)c(NC(=O)Nc2cccc(OC)c2)c1,"inconclusive: 8.28 µM [inhibitor, partial curve, poor fit]"
17,CC1CCCCC1NC(=O)CCNC(=O)N1CC(=O)Nc2ccccc21 (stereo not given),inactive
18,COc1ccc(Cn2nnc3c(=O)[nH]c(C4CCN(S(=O)(=O)c5ccc(C)cc5)CC4)nc32)cc1,"inconclusive: 1.47 µM [inhibitor, full curve]"
19,Cc1cc(C)n2nc(SCc3cccc(S(=O)(=O)N(C)C)c3)nc2n1,"inconclusive: 0.262 µM [inhibitor, partial curve, poor fit]"
20,COc1ccc(CCOC(=O)c2ccc(N)c([N+](=O)[O-])c2)cc1,"inconclusive: 6.57 µM [inhibitor, partial curve]"
21,CC(=O)NC1C(=O)N=C(SCC(=O)Nc2cccc(Cl)c2)NC1=O (stereo not given),"inconclusive: 10.4 µM [inhibitor, partial curve, poor fit]"
22,C[C@@H]1O[C@@H](O[C@@H]2C=C3CCC4C(CC[C@]5(C)[C@@H](c6ccc(=O)oc6)CC[C@]45O)[C@@]3(C)CC2)[C@H](O)[C@H](O)[C@H]1O (stereo not given in full),"inconclusive: 0.0131 µM [inhibitor, full curve, poor fit]"
